The source of these data is article PMC12370185.

This is one part of the list. For part of these data: At the low end of the ranking the order means little.

Holding throughout (settings): 10 mM Tris-Cl pH 7.5, 50 mM NaCl, 1 mM DTT, 0.25 mg/ml BSA, 2 mM MgCl2, 0.025% Nonidet P-40, 5% glycerol; 28 nM nucleosome library; 10 min on ice then 30 min …; high values mean tight binding; double strand, one strand shown
The test system of test [1] is KLF4 + histone octamer. Nature of the test: EMSA with sequencing. On the technique in general: In EMSA bound probe runs differently from free probe, usually more slowly.
In test [2] the test system is SOX2 + histone octamer. Nature of the test: EMSA with sequencing.
The test system of test [3] is c-MYC + MAX + histone octamer. Nature of the test: EMSA with sequencing.
The subject of test [4] is OCT4 + histone octamer. Description: Pioneer-seq (competitive nucleosome EMSA with sequencing).

“GATGGACCCTATACGCGGCAAGCCAGCTTTCTTTACCATTGTCATGTTGGCCTTGCCCTAGAAATCTGAATCACTGCATTATGATATGATAGGCTGAGCTTAGCTGTTTGTGCTGCAACGTGACCATCCCCTGCCAGCTATATTTTCAAGCTGTTTCAGGACCATGTCATTATTTTGCAAACAAACCAGCTGAATGGTTCAATGTTTCCCTGCCAGTCGGATAGTGTTCC”: the binding signal (log2 relative supershift) in test [1] was 0.586; in test [2], 1.42; in test [3], 0.0448; in test [4] it was -0.165.
With “GATGGACCCTATACGCGGCTTGAGTAAACATCCCCAAAAGATCCCATTAAGATGTAAACATGAAAGAATGCTCAATACAGCTGTGGTCTCACCATTTGCCTTGTGTTGTACATCTGGCGGAAGCTGGTCAAGAGCATACCACTGATAGTCTGGCTGTGTGGAACAATACAACATTATTATAGCAATATGGACTTCAAATATAGTGGCATGTGCCAGTCGGATAGTGTTCC”, the binding signal (log2 relative supershift) in test [1] was 0.166; in test [2] it was 1.13; in test [3], 0.888; in test [4] it was -0.0614.
Taken in the same sequence, the figures for “GATGGACCCTATACGCGGCCAGGTCTCACTGTGCAAGGCAGGGATGCCCTGGGCTGTGGGAGCTGCCAGTGGGTGGGGCCTGCACACGTGGTCTGGGAGCAGTAACCCTGGAGACATCCTCTAGGCACGTGTGAGGCCTGGGAGACTCGGCAAGGAGGAGGGCTGAGAGCAGTGAAGTGTAGGGACAATGTATTAACAACAGGCTCAAACTGCCAGTCGGATAGTGTTCC” were 1.61, 0.793, 0.414 and -0.685.
Taken in the same sequence, the figures for “GATGGACCCTATACGCGGCGTTGTCTAGTTTGGTCTGGTCCAGTTTGGTTTGGTCTTGTCCAGTCCAGTCTTGTCTTGGAGTTTCACTCTTCCGCCCAGGCTAGAGTGAAGTTTCGGCATCTCAGCTCACTGCAACCTCCGCCCCTGAGTTCAGGCGATTCTCCTACGAGTAGCTGGGATTGTAGGCGCCTGCCACCACACCTGGGTAATTGCCAGTCGGATAGTGTTCC” were 2.41, 0.119, 0.227 and -0.911.
The matching figures for “GATGGACCCTATACGCGGCTTTTCAAACACATGAGGTCCTCATGGTTGGGTAATGATCTTTTATTCACTCCTAATTGACTCACTGCTCTGTTTCCACAATGCCCACAAGTCTTTGTCATTCTACTCCTGGCTTCAACCTGCCCACCTCTCTTTGACCTCACTTAAAAGACTGTGGCCAAATTCCTTTCTTTCCACCTCAAAATTCCTATGTGCCAGTCGGATAGTGTTCC”: 0.945, 1.42, 0.61 and -0.197.
With “GATGGACCCTATACGCGGCCTCCTGTTACATTCACCCTGTCCTTCTTATAATCCTTTTGGGCTTGTATCAACACGACGTGACCAAGTTCTCACTTGTTCTGGTTACTTCACGCATGCTTACACCAACCCCACAGAAAGCCAGCCCCTGTGGGCCACAGAGCCCAGCTCAGGCAGTGCAAGCTGTGGGCCCCCTGGGGCTCTCTGTCTTCTTGCCAGTCGGATAGTGTTCC”, the binding signal (log2 relative supershift) is 1.14 in test [1], 0.212 in test [2], 0.306 in test [3] and -0.387 in test [4].
The matching figures for “GATGGACCCTATACGCGGCTGTTTTGTATGCATGAGTTCTAAACCACCCATCCCCACAAAGGAGTTTCCTTACATTTTTACTCTGTATGTGGGTGTGTTTGGAAAGATGAGAAAGAAACATCATTATTATGCATGGTACTGGTAAACAACACCACCACCACCACCCAGACACACAAAAAAATGGAACAGAATAGAGAGCCCAGAAATAGGTGCCAGTCGGATAGTGTTCC”: 2.62, 1.86, 0.0765 and -0.509.
Taken in the same sequence, the figures for “GATGGACCCTATACGCGGCCTCTGTCAGCCAGGCTGCCCTCCCTGCATTAGCCCTGTATCCAGGCTTCACTGCACATGGAAGCCCAGCCCCAACCCGCTGCCACTCCAGGTCAGTGGCAGGCCCTGCCCGGGGGACTGGGAGGTGGAGTCTATCAAGAGAGAGCTGGGTTGGGAGATGGATGTGCTGGGGGTGGCCTTGAAGACTTTGAATGCCAGTCGGATAGTGTTCC” were 2.23, 0.368, 0.0958 and -0.768.
The matching figures for “GATGGACCCTATACGCGGCGTGTCCCTCTAGGGTGTGGCATAGTCTAACTGTCCTGCCAGAAGGGTCCAGGGTGTGGCTGGGTCTGAGCTAGTGGAGAACTGTGTGCATGCGATCAGGTGTGGGGACACAGTGCGTGTGTCCATGCATGCTCTTGTCAGAGAGAGGGTGATGGAGAGAGGAAGGAAGATCGAGAAAAACACAAAGACGTGTGCCAGTCGGATAGTGTTCC”: 1.79, 1.15, 0.939 and -0.697.
With “GATGGACCCTATACGCGGCAACGTGAGGCAGGATGTTCATTTTCCTCTAGTAGCAGGTTCTGAGATAGTCTGTGTGTGATGTGCATGTGAATGAGTGGATGTGAGTGAGAATAGCAGGAGTGAGGGTAGGTTGCAGTTTTGATTACACGGGTGTAGACTGATTCTCTGAGGTCAGCTTTATGCACTGGGTTTTAACTTTGTGGAACCATATGCCAGTCGGATAGTGTTCC”, the binding signal (log2 relative supershift) in test [1] was 0.893; in test [2], 0.331; in test [3] it was 0.749; in test [4], -0.247.
Taken in the same sequence, the figures for “GATGGACCCTATACGCGGCCAGGGCGCACGCCCATTCCCCAAGATAGAGGGGTGGGAGCCACGTGCCTAAAAGATTAGGGACTGGTTCCCTTTCTCAAGACGCCGAAGGGGAGACAATGAGGGGAAGGTTGGGTGCTGAGACCCTGCTCTAGGTGACTGGAGTAACGATGTCAATTCCGCCACACTACTGTGCCAGATGTGGCTGGGGAATGCCAGTCGGATAGTGTTCC” were 2.36, 0.0995, 1.05 and -0.336.
With “GATGGACCCTATACGCGGCGCGGAAACCACCTCGACAGCCTCCAGAAAGGGGCGTGGCTGAAAATGTAGGGGCGTGGCCACGTGGGCATCAGGAAGAAGTAACCTGTTGAATCTATTTCTGCTCCCCACCCTTACTGCTTCCCATAAGGGGGAAGCCGCAGACTAATAAGCCTCTTCCAAAAAAGAGGTAAAGGGAGGTAGACAAGGGGCTGCCAGTCGGATAGTGTTCC”, the binding signal (log2 relative supershift) in test [1] is 2.58; in test [2], 0.415; in test [3], 0.23; in test [4] it was -0.727.
Taken in the same sequence, the figures for “GATGGACCCTATACGCGGCATCCCTTCCCCACCTACCAGGCTTCCAGGGACACCCACGTGCAGGGACACACTCCTCCCAACACACACAGCCAGGATCACAGTGCCACACAGGTGTGTCCCACGTGCCACAGGAACCGAGGAATAGTGCACACTAACACATGCATGGAAATCCCACACCCATATGCAGACGCGTACACTCCTGGCTCTGAATGCCAGTCGGATAGTGTTCC” were 2.35, 0.0439, 0.81 and -0.227.
As to “GATGGACCCTATACGCGGCTGTTTTGCACTTGGACAGGTATGAGTCAACTGTTGCCATAGTAATGTTGCATAACAAACCATTCCCAATCTCAGTGGTTTACAGCACAATCATTTATTCTTATGCAGGTCACCAGGGCAACTCTGGTTCAGTTGACCCAGGATTGGTTTGACTGGGTGACTCTTCTTCAGGTTGTGGATCAATTACCCCTGTGCCAGTCGGATAGTGTTCC”, the binding signal (log2 relative supershift) in test [1] was 0.754; in test [2], 0.294; in test [3] it was 0.402; in test [4], -0.212.
The matching figures for “GATGGACCCTATACGCGGCCTGTTTGTTTAAGGCAGCGTATGGCTCTGTCGTTCAGGGTGGAGTGCAGTGGCGCAATCATGACTCACTGCAGCCTTGAACTCCTGAATGCCGCCTTGAATTCCTGGATTCCAGCGACTCTCCCACCTCAACCTCCTGAGTAGCTGAGACCAAAGGCACGTGCCACACTCCCGGCTAATTTATTTTTATTTTGCCAGTCGGATAGTGTTCC”: 1.44, 0.193, 0.616 and -0.205.
Taken in the same sequence, the figures for “GATGGACCCTATACGCGGCAGTTAGAAAGGGTTTGAAATTCAGAGTGGAGCCATACTGTACAATGGTGATACCCCATGTGGCTCTCTTAGCTAAGCATGCTCTGAAGTGGAACTGAGGAGAGGGAGGAACTGAGAGACCAGGATCTGGGTGGGTCATCCACACGAACATTGCAACCACCCAGGATAATGGCAGCACTTGTGGCAAGGGGGTGCCAGTCGGATAGTGTTCC” were 1.8, 1.21, 0.748 and -0.277.
Taken in the same sequence, the figures for “GATGGACCCTATACGCGGCTGTGCTAGCAATTCTAAACAATGCAATAAAATTCTCTTCCCCACTGGAGTAAACTGCTCCCACCACTCCTCCTCCTTAGTCAGTCCCTAGTGGGGAAAAAGTCCCCACCCCTTGATGGGAGTGGTGACAAAGTCACATTGCAAAGGGGCACATGCACTGGGTTGGGAAGAATTATTACAGCCCACTTTGTATGCCAGTCGGATAGTGTTCC” were 2.09, 1.44, 0.0331 and -0.23.
“GATGGACCCTATACGCGGCTCAAACATCACCAGTGAAACACATGGGCAGCATCCAGGGACTAACACAGGGCAAATGTTTCCTGTGTACCGAAAGGCATAATTTGCAACACGAAGGAACATTATCTCCATGAACACAAGGCTGCTCTCCTAGATGAATGAGGGATAGGACCGTGCAGTTCAAGTCCACTCAAGGGTGGCACAATCAGTGTCTGCCAGTCGGATAGTGTTCC”: the binding signal (log2 relative supershift) was 2.13 in test [1], 0.818 in test [2], 0.725 in test [3] and -0.393 in test [4].
Taken in the same sequence, the figures for “GATGGACCCTATACGCGGCTGCTGTAGGGCCAGAGAAGGATACACACAGCGAGCCTGGCGAATCTCAACAGTACTGGGTGTGGTCAGAGGGCAGCGTGGGTGTGGCCGCATGGCTCCACCCCAGACCCACATGGAGCAGTGGCTTTGGAGCCAGACGCAGGAGCTGGGAATGGCAGCCAGCACATCACAACTTCTGAGCTCAACCATTTGTGCCAGTCGGATAGTGTTCC” were 1.13, 0.565, 0.414 and -0.218.
Taken in the same sequence, the figures for “GATGGACCCTATACGCGGCTGCCTTTTTGAGAAGTAGACATATGTACTGGAGGCAACCTAGCTTGGTGTGATGAGCAACAGATTGGAACACAGAGCAGCACTAGGTGTACAGTGTCAGGAAGTCCAACTCAGTGGGTGTTTGTTATGCACAAGGAACTTTGACAGGCATTATTGTGGGAGAGGGTGGTTGAGGTGGATATAAGCATGAATTGCCAGTCGGATAGTGTTCC” were 1.99, 0.553, 0.135 and -0.123.
Taken in the same sequence, the figures for “GATGGACCCTATACGCGGCCTAGAGCTGGTGGAGAGTCGGGAGAGGCAGCTGATCGGGCAGATAAGAGCAGATCATGTTGAGTCTTGTGCAGTTTGCGCAGAAGTTTGGATGTAACTCTGTAAGCATTAGAGAAATGTCATCTGGCAGCATTCATAGAAGCTATCACAAGAGGACCAGACAGAAGTCTGGTTTGAAACCAAGGCAACAACTGCCAGTCGGATAGTGTTCC” were 1.17, 0.561, 0.635 and -0.21.
